PubChem BioAssay AID743121, NCATS | 2013
Screen: 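Knock-downs that sensitise breast cancer cells to camptothecin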 (primary screen). System: MDA-MB-231 cells, a human breast cancer line. Knock-down reagent: single siRNA against human genes, 20 nM siRNA (0.8 pmol per well). Time to read-out: 120 h (drug added 48 h after transfection, read 72 h later). Conditions: camptothecin 20 nM (about EC30) for 72 h; vehicle 0.1% DMSO in parallel plates. Measurement: 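Cell viability by ATP luminescence (CellTiter-Glo) as % of non-targeting siRNA wells, and the log2 ratio of viability without drug over viability with camptothecin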. Direction: log2 vehicle/camptothecin viability: higher = stronger sensitisation to camptothecin; viability with camptothecin: higher = more viable cells. Units: viability with camptothecin in % of control. Call rule: 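Active genes have an RSA gene-level p-value below 0.001, computed from the ratios of their separate siRNAs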.
Shown is a random part of about 26,000 reagents tested. 167 of all reagents (0.63%) count as active. 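Calls are per gene from RSA p-values that are not deposited; an individual active-marked siRNA can sensitise only weakly.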 The numbers tell different reagents against one gene apart. Not all columns of the deposit are shown. Reagent sequences are not shown.

For NMUR1 (GeneID 10316) #1, the entry reads log2 vehicle/camptothecin viability -0.258; viability with camptothecin 101; inactive.
Depletion of NMUR1 (GeneID 10316) #2 resulted in: log2 vehicle/camptothecin viability -0.434; viability with camptothecin 74.3; inactive.
Depletion of NMUR1 (GeneID 10316) #3 came out at: log2 vehicle/camptothecin viability -0.538; viability with camptothecin 94.5; inactive.
Silencing of NMUR1 (GeneID 10316) #4 came out at: log2 vehicle/camptothecin viability -0.138; viability with camptothecin 46.4; inactive.
PPFIA1 (GeneID 8500) #1 showed log2 vehicle/camptothecin viability -0.0757; viability with camptothecin 89.1; inactive.
Silencing of PPFIA1 (GeneID 8500) #2 came out at: log2 vehicle/camptothecin viability -0.142; viability with camptothecin 68.5; inactive.
With knock-down of PPFIA1 (GeneID 8500) #3 the results were log2 vehicle/camptothecin viability -0.154; viability with camptothecin 82.9; inactive.
PPFIA1 (GeneID 8500) #4 gave log2 vehicle/camptothecin viability -0.334; viability with camptothecin 79.7; inactive.

4 successive records from above:
NMUR1 (GeneID 10316) #2 → log2 vehicle/camptothecin viability = -0.434; viability with camptothecin = 74.3; activity call = inactive
NMUR1 (GeneID 10316) #3 → log2 vehicle/camptothecin viability = -0.538; viability with camptothecin = 94.5; activity call = inactive
NMUR1 (GeneID 10316) #4 → log2 vehicle/camptothecin viability = -0.138; viability with camptothecin = 46.4; activity call = inactive
PPFIA1 (GeneID 8500) #1 → log2 vehicle/camptothecin viability = -0.0757; viability with camptothecin = 89.1; activity call = inactive

Continued.
For ZEB2 (GeneID 9839) #1 the deposit lists log2 vehicle/camptothecin viability 0.00523; viability with camptothecin 80.9; inactive.
For ZEB2 (GeneID 9839) #2, the entry reads log2 vehicle/camptothecin viability 0.0599; viability with camptothecin 98.8; inactive.
With knock-down of ZEB2 (GeneID 9839) #3, the screen gave log2 vehicle/camptothecin viability -0.395; viability with camptothecin 127; inactive.
With knock-down of ZEB2 (GeneID 9839) #4 the results were log2 vehicle/camptothecin viability 0.073; viability with camptothecin 97.5; inactive.
Silencing of SEZ6L (GeneID 23544) #1 came out at: log2 vehicle/camptothecin viability 0.101; viability with camptothecin 93.2; inactive.
After knock-down of SEZ6L (GeneID 23544) #2, the record shows log2 vehicle/camptothecin viability -0.156; viability with camptothecin 117; inactive.
For SEZ6L (GeneID 23544) #3, the values are log2 vehicle/camptothecin viability -0.21; viability with camptothecin 63.1; inactive.
With knock-down of SEZ6L (GeneID 23544) #4, the record shows log2 vehicle/camptothecin viability -0.449; viability with camptothecin 108; inactive.
Against RNF149 (GeneID 284996) #1, the values are log2 vehicle/camptothecin viability -0.435; viability with camptothecin 74.2; inactive.
Against RNF149 (GeneID 284996) #2, the entry reads log2 vehicle/camptothecin viability -0.25; viability with camptothecin 81.4; inactive.
With knock-down of RNF149 (GeneID 284996) #3, the record shows log2 vehicle/camptothecin viability 0.253; viability with camptothecin 71.6; inactive.
After knock-down of RNF149 (GeneID 284996) #4, the record shows log2 vehicle/camptothecin viability 0.822; viability with camptothecin 16.8; inactive.
CACNA1F (GeneID 778) #1 showed log2 vehicle/camptothecin viability -0.325; viability with camptothecin 108; inactive.
Silencing of CACNA1F (GeneID 778) #2 resulted in: log2 vehicle/camptothecin viability -0.376; viability with camptothecin 108; inactive.
For CACNA1F (GeneID 778) #3, the entry reads log2 vehicle/camptothecin viability -0.513; viability with camptothecin 115; inactive.
Knock-down of CACNA1F (GeneID 778) #4 gave: log2 vehicle/camptothecin viability 0.586; viability with camptothecin 30.2; inactive.
